Source: doi:10.1101/2025.08.21.671625, “α-catenin phosphorylation is actomyosin-sensitive and required for epithelial barrier functions through Afadin” (bioRxiv, 2025)
No constants are given. Whether binding was seen depends on the method and setting. Some binding calls cover weakened binding; strength is not graded here. Where a sequence is shown, tags or fusion partners need not be part of it.

By UniProt entry, the sequences of proteins in these tests, tags left out.
UniProt P35221: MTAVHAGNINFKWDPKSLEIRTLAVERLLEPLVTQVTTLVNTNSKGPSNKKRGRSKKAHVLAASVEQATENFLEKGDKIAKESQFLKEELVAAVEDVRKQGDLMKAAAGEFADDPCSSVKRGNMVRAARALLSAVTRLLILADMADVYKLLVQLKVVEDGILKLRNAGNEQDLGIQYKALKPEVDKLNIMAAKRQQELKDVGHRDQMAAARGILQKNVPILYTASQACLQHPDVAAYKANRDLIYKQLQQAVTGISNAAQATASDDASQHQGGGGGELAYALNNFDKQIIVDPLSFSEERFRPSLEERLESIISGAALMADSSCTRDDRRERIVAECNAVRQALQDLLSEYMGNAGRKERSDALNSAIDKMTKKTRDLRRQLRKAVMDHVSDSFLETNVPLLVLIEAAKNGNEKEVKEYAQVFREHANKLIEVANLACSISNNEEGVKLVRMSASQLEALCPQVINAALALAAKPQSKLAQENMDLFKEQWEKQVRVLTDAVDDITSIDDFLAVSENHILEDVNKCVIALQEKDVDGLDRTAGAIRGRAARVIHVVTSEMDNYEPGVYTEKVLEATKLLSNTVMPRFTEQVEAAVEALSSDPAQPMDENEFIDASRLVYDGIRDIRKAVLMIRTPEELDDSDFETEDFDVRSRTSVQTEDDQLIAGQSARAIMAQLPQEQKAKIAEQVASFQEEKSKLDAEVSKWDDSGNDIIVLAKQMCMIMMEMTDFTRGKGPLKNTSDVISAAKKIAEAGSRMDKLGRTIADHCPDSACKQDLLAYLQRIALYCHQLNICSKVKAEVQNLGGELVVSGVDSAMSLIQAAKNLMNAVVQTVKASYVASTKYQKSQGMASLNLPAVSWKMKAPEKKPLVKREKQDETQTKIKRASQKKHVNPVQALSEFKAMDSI

Target: T1, GST-Afadin-Coiled-coil α-cat binding region (Afadin-CC-ABR; amino acids 1391–1449) (rat)
T1 sequence: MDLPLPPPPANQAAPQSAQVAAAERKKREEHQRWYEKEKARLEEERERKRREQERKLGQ
Experiment: pull-down; GST-Afdn-CC-ABR (or GST control) pre-bound to glutathione resin, mixed with α-cat prey proteins, washed, eluted with free glutathione; interaction strength assessed by Coomassie staining; both purified

- binding: binds weakly
Substance: full length αE-cat WT (from UniProt P35221 1-906)
